One molecule from publication PMC2904708 can be followed below.

No constants are given. Whether binding was seen depends on the method and setting. Binding seen in cells or lysates may run through a third protein. Some results given as binding are weak or reduced against the parent protein; the word gives no strength.

The assay deals with T1, Barx2 (UniProt O08686).
T1 sequence: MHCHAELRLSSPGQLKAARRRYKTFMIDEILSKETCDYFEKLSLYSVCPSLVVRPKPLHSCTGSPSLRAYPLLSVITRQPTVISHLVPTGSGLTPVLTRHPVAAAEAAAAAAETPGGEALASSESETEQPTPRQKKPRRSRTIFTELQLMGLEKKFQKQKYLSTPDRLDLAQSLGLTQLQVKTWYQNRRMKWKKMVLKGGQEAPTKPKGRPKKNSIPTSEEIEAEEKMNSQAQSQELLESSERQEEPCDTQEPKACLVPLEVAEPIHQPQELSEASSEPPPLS
As to the kind of experiment: co-IP; COS1 or C2C12 cells co-transfected with Barx2/pcDNA3 and Hes6/pCMVSport6; lysates 48 h after transfection, pre-cleared with Protein A-Sepharose, incubated overnight at 4°C with 5 µg anti-Barx2 rabbit antibody or preimmune serum; precipitated with Protein A-Sepharose, washed four times, immunoblotted with anti-Hes6 goat antibody. For orientation: Immunoblotting shows a protein as a band on a membrane.

B1: Hes6 (protein, UniProt Q9JHE6 1-224)
chain: MAPSQAPSRDRAGQEDEDRWEARGDRKARKPLVEKKRRARINESLQELRLLLAGTEVQAKLENAEVLELTVRRVQGALRGRAREREQLQAEASERFAAGYIQCMHEVHTFVSTCQAIDATVSAELLNHLLESMPLREGSSFQDLLGDSLAGLPGGSGRSSWPPGGSPESPLSSPPGPGDDLCSDLEEIPEAELNRVPAEGPDLVSTSLGSLTAARRAQSVWRPW
B1: the binding entry was “binds”.
